Source: US20090028880A1
No constants are given. Whether binding was seen depends on the method and setting. Some binding calls cover weakened binding; strength is not graded here.

Biological target: mouse serum albumin (mouse), P07724
Conditions: remark: other sources report otherwise

binding: binds
B1: PMP6G7 (VHH)
VHH: QVQLVESGGGLVQPGGSLRLSCAASGFTFSNYWMYWVRVAPGKGLERISRDISTGGGYSYYADSVKGRFTISRDNAKNTLYLQMNSLKPEDTALYYCAKDREAQVDTLDFDYRGQGTQVTVSS
